PMC11642393

By UniProt entry, the sequences of proteins in these tests, tags left out. Where a name states a change or a piece, a line headed by the entry shows the natural chain unless it says otherwise.
UniProt P62491: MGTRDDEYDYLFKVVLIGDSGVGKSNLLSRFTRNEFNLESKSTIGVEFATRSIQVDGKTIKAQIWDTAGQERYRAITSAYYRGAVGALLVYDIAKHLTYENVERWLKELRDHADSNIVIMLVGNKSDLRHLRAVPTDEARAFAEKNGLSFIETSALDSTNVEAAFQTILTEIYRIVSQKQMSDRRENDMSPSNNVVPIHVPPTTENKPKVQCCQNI
UniProt O75154: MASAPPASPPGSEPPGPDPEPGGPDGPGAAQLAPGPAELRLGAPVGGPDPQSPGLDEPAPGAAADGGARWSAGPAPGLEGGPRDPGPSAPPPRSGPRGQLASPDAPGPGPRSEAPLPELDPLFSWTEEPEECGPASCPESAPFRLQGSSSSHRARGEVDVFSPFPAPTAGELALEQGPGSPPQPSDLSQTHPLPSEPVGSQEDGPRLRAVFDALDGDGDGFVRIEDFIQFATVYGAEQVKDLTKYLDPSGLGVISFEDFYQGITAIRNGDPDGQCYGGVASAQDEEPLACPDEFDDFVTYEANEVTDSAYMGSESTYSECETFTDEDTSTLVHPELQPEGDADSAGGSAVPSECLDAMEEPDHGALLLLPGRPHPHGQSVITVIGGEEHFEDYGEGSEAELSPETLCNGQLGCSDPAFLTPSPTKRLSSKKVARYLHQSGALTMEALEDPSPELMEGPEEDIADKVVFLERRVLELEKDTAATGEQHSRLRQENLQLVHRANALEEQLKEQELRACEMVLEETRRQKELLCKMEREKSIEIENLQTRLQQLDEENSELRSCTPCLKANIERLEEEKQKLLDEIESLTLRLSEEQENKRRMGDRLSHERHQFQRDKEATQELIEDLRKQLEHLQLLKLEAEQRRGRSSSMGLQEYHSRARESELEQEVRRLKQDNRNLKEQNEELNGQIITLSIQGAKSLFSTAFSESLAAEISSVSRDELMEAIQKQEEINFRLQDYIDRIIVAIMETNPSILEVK

How the values were obtained:
[1] = target: RAB11A (as part of the FRET biosensor) (UniProt P62491); experiment: FRET or BRET; biosensor probe (RAB11A, mECFP, mcpVenus and C-terminal RAB11FIP3 fused) transfected into Cos-7 cells; vehicle or Rab11-inhibitor-D6 at 20 µM for 16 h; fixed in 4% PFA; FRET ratio by confocal microscopy
[2] = target: RAB11A (as part of the FRET biosensor) (UniProt P62491); experiment: FRET or BRET; anisotropy-based FRET of the same biosensor in clarified lysates of transfected HEK293T cells (10 mM Tris-HCl pH 7.4, 10 mM MgCl2, 100 mM NaCl, 1% Triton X-100); Rab11 inhibitor added for 5 h; excitation 430 nm, emission 535 nm

C-terminal portion of RAB11FIP3 (as part of the FRET biosensor) (from UniProt O75154) (domain or fragment)
binding [1]: binds | binding [2]: binds

No constants are given. Whether binding was seen depends on the method and setting. Binding seen in cells or lysates may run through a third protein. A result given as binding can be weak or reduced; the word gives no strength.
